These results are taken from patent US6677466B1, “Method for stabilizing hydrogen peroxide” (DSM Fine Chemicals Austria NFG GmbH & Co KG, priority 1999, dated 2004).

A short description of series [1]: [Mn2O3{Me3tacn}2](PF6)2-catalyzed epoxidation of cyclohexene with H2O2 in the presence of stabilizer, GC analysis. As to the method: (§1) 27.7 mg (0.035 mmol) of [Mn2O3{Me3tacn}2](PF6)2, 2.95 g (35.9 mmol) of cyclohexene, 1.79 g (17.5 mmol) of methyl pyruvate (MP) or 2.10 g (17.5 mmol) of GMHA and 5.14 g (35.0 mmol) of 1,3-dichlorobenzene were dissolved in 40 ml of acetonitrile. The resulting solution was cooled in an ice water bath and then 3.0 ml (52.5 mmol) of a 50% strength aqueous solution of H2O2 were added to the solution over the course of 3 hours. 15 minutes after the end of the H2O2 addition, the reaction mixture was analyzed by means of GC.
as §1, with “of acetonitrile. 1.4 ml of oxalate buffer (6 mol equivalent of oxalate based on the catalyst) were added to this solution. The resulting” for “of acetonitrile. The resulting”, “H2O2 were then added to” for “H2O2 were added to”
In variants a)-d), 1,3-dichlorobenzene was present during the reaction as an internal standard. The reaction mixtures were each analyzed with GC (Hewlett Packard 5890 series II; CpSil5CB column (25 m×0.32 mm, dl=1.2 μm). Temperature program: start temp.: 70° C., init. time: 1 min., rate: 7° C./min, final temp.: 250° C.)
27.7 mg (0.035 mmol) of [Mn2O3{Me3tacn}2](PF6)2, 2.95 g (35.9 mmol) of cyclohexene, 1.05 g (8.75 mmol) of GMHA and 5.14 g (35.0 mmol) of 1,3-dichlorobenzene were dissolved in 40 ml of acetonitrile. 1.4 ml of oxalate buffer (6 mol equivalent of oxalate based on the catalyst) were added to this solution. The resulting solution was cooled in an ice water bath and then 3.0 ml (52.5 mmol) of a 50% strength aqueous solution of H2O2 were added to the solution over the course of 6 hours. 15 minutes after the end of the H2O2 addition, the reaction mixture was analyzed by means of GC.
(§2) In Examples 4 and 5, 1,3-dichlorobenzene was present during the reaction as an internal standard. The reaction mixtures of Examples 4-6 were each analyzed with GC (Hewlett Packard 5890 series II; CpSil5CB column (25 m×0.32 mm, dl=1.2 μm). Temperature program: start temp.: 70° C., init. time: 1 min., rate: 7° C./min, final temp.: 250° C.).

A short description of series [2]: [Mn2O3{Me3tacn}2](PF6)2-catalyzed epoxidation of styrene with H2O2 in the presence of stabilizer, GC analysis. The following applies: Example 5: styrene; 8.75 mmol stabilizer, oxalate buffer; H2O2 added over 6 hours. As for the experimental part: 27.7 mg (0.035 mmol) of [Mn2O3{Me3tacn}2](PF6)2, 3.74 g (35.9 mmol) of styrene, 1.05 g (8.75 mmol) of GMHA and 5.14 g (35.0 mmol) of 1,3-dichlorobenzene were dissolved in 40 ml of acetonitrile. 1.4 ml of oxalate buffer (6 mol equivalent of oxalate based on the catalyst) were added to this solution. The resulting solution was cooled in an ice water bath and then 3.0 ml (52.5 mmol) of a 50% strength aqueous solution of H2O2 were added to the solution over the course of 6 hours. 15 minutes after the end of the H2O2 addition, the reaction mixture was analyzed by means of GC.
as §2

The nature of series [3]: [Mn2O3{Me3tacn}2](PF6)2-catalyzed oxidation of benzyl alcohol with H2O2 in the presence of stabilizer. The conditions noted are these: Example 6: 17.5 mmol stabilizer in t-butanol, H2O2 added over 4 hours. As to the method: 18.4 mg (0.023 mmol) of [Mn2O3{Me3tacn}2](PF6)2, 2.52 g (23.3 mmol) of benzyl alcohol and 2.10 g (17.5 mmol) of GMHA were dissolved in 40 ml of t-butanol. The resulting solution was cooled to room temperature in an ice water bath, and then 4.0 ml (70.3 mmol) of a 50% strength aqueous solution of H2O2 were added to the solution over the course of 4 hours.
The reaction mixture was diluted with 100 ml of diethyl ether, and the organic phase was extracted with 4×25 ml of water. 50 ml of an aqueous 0.5M NaOH solution were then added. Following the removal of the organic phase, the aqueous phase was extracted with 2×25 ml of diethyl ether. 100 ml of diethyl ether were then added, followed by 50 ml of aqueous 0.5M HCl solution. The organic phase was separated off and dried over sodium sulfate. Following removal of the solvent under reduced pressure, pure benzoic acid was isolated as a pale yellow solid.

Setting [4] is: variant c: 17.5 mmol stabilizer, without oxalate buffer, H2O2 added over 3 hours.
Setting [5] is: variant d: 17.5 mmol stabilizer and oxalate buffer, H2O2 added over 3 hours.
Where [6] appears, read: Example 4: 8.75 mmol stabilizer, oxalate buffer, H2O2 added over 6 hours.

Regarding `COC(=O)C(C)=O` [methyl pyruvate], in series [1] (setting [4]), the Conversion is 31%, the Selectivity is on record as 45% and the Yield came out at 14%. In series [1] (setting [5]), the Conversion is reported as 100%, the Selectivity was found to be 68% and the Yield is listed as 68%.
For the compound `COC(=O)C(O)OC` (centres unmarked) [GMHA, glyoxylic methyl ester methyl hemiacetal], the Conversion is 88% in series [2], 100% in series [1] (setting [6]), 94% in series [1] (setting [4]) and 100% in series [1] (setting [5]). For the same compound, the Selectivity came out at 78% in series [2], 81% in series [1] (setting [6]), 64% in series [1] (setting [4]) and 76% in series [1] (setting [5]). Also, the Yield is 69% in series [2], 81% in series [1] (setting [6]), 60% in series [1] (setting [4]) and 76% in series [1] (setting [5]). Besides, in series [3], the “Yield of isolated benzoic acid” value is recorded as 87%. Moreover, in series [3] (GC), the “conversion of the benzyl alcohol” value was “quantitative conversion”.
